# Values quoted from earlier work, collected in US20220265683A1, “HALOGENATED SALICYLANILIDES FOR THE TREATMENT OF DERMATITIS” (priority 2018, published 2022).
# Read-outs that look alike come from different tables or passages of the source. At least one structure is not confirmed: it was looked up by name or label, or the drawing left a doubt. Marks after values point to notes of the source that are not given here.
# Test system: biomarkers in lesional AD skin
# Details: only responder population, cited from earlier work
structure (smiles),measurement,setting,value
CC1(C)O[C@@H]2C[C@H]3[C@@H]4CCC5=CC(=O)C=C[C@]5(C)[C@@]4(F)[C@@H](O)C[C@]3(C)[C@]2(C(=O)CO)O1 [Triamcinolone acetonide],"S100A8, Triamcinolone acetonide bid vs. predose","4 weeks, Microarray",−1.71^d
same,"S100A9, Triamcinolone acetonide bid vs. predose","4 weeks, Microarray",−3.22^d
same,"S100A12, Triamcinolone acetonide bid vs. predose","4 weeks, qRT-PCR",−4.1^d
same,"CD3d, Triamcinolone acetonide bid vs. predose","16 weeks, Microarray",−2.52^d
same,"IL15, Triamcinolone acetonide bid vs. predose","16 weeks, Microarray",−2^d
same,"IL22, Triamcinolone acetonide bid vs. predose","16 weeks, Microarray",−3.37^d
same,"JAK3, Triamcinolone acetonide bid vs. predose","16 weeks, Microarray",−2.11^d
same,"S100A8, Triamcinolone acetonide bid vs. predose","16 weeks, Microarray",−4.63^c
same,"S100A9, Triamcinolone acetonide bid vs. predose","16 weeks, Microarray",−18.2^b
same,"CCL17, Triamcinolone acetonide bid vs. predose","16 weeks, qRT-PCR",−6.92^c
same,"CCL18, Triamcinolone acetonide bid vs. predose","16 weeks, qRT-PCR",−7.5^c
same,"CCL20, Triamcinolone acetonide bid vs. predose","16 weeks, qRT-PCR",−3.67^d
same,"CXCL10, Triamcinolone acetonide bid vs. predose","16 weeks, qRT-PCR",−4.07^d
same,"IL13, Triamcinolone acetonide bid vs. predose","16 weeks, qRT-PCR",−5.48^d
same,"K16/KRT16, Triamcinolone acetonide bid vs. predose","16 weeks, qRT-PCR",−10.4^c
same,"LOR, Triamcinolone acetonide bid vs. predose","16 weeks, qRT-PCR",2.7^f
same,"MMP12, Triamcinolone acetonide bid vs. predose","16 weeks, qRT-PCR",−17^b
same,"PI3, Triamcinolone acetonide bid vs. predose","16 weeks, qRT-PCR",−26.6^a
same,"S100A12, Triamcinolone acetonide bid vs. predose","16 weeks, qRT-PCR",−7.11^c
